Library screening results

The values are deposited in ChEMBL (CHEMBL3988442, “University of Dundee, Small-Polar-MMV Screening Library” (2021)).

Each number is a percent effect as filed.
The controls that fix the scale are not given in the record; negative values are as filed.
Compounds were drawn at random from those tested, without regard to their results.
Two or more numbers in one place are separate tests of the same structure; such repeats can differ widely.

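Viability assay of Plasmodium falciparum sporozoites; the read-out is not stated. The concentration is filed as 10 mM, unlikely as a test dose, so the dose is not known. Higher reads as lower viability (inferred: compounds with an IC50 in retests scored well above the rest). Strong results were mostly tested again. Size under these conditions: about 34,000 compounds, about 280 of them at 50% or above in at least one test.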

compound	Percent Effect
CCNC(c1ccc(C(C)C)cc1)c1cccnc1 (centres unmarked)	-3.209%
COc1ccc(CN(C)C(=O)NCc2c(C)cc(C)[nH]c2=O)cc1	5.297%
O=C(C1CCC1)N1CCC(c2ncc3c(n2)CCNC3)CC1	-0.8223%
CCN(CC1CCCO1)C(=O)Nc1cc(C(=O)OC)ccc1F (centres unmarked)	3.701%
CCOCc1nc(N2CCOCC2)sc1C(=O)NCc1ccco1	-13.52%
COc1cc2[nH]c(C(=O)O)cc2c(OC)c1C	-13.1%
Cc1ccc(N2CCCC3(CCN(C(=O)NC4CCCC4)C3)C2)nn1 (centres unmarked)	1.618%
O=C(COCc1ccccc1Cl)N1CCN(c2cnccn2)CC1	-0.3911%
Cc1nccc(-c2cccc(NCC(=O)N3CCNC(=O)C3)c2)n1	-6.553%
O=C(c1cccn1Cc1cccs1)N1CCN2CCCCC2C1 (centres unmarked)	1.534%
Cc1cc(C(=O)NCCN2CCC(C)CC2)nn1C(C)(C)C	-5.013%
CSCC[C@H](NC(C)=O)c1nc(Cc2ccccc2)n[nH]1	6.14%
CCn1ncc(CN2CCCC(n3c(=O)oc4ccccc43)C2)c1C.Cl (centres unmarked)	-11.62%
COCC(=O)N1CCO[C@]2(CCC[C@H]2COC)C1	5.738%
Cc1ccc(C(CNC(=O)c2c(C)noc2C(C)C)N(C)C)cc1 (centres unmarked)	17.27% & 19.53% & 13.78%
O=C(NCc1sc2ccccc2c1Cl)c1cc2n(n1)CCNC2	-3.76%
CC(=O)N[C@@H]1CN(Cc2ccccc2C#N)C[C@H]1c1ccc(C)cc1	43.29% & 43.55%
O=S(=O)(c1ccc(F)c(F)c1)N1CCCC(c2nccs2)C1 (centres unmarked)	11.7%
CCn1cc(NC(=O)NCC(C)N(C)C2CC2)cn1 (centres unmarked)	8.248%
COCCNC(=O)CN1CCCC1c1c(C)nn(C)c1Cl (centres unmarked)	-2.301%
CC(C(=O)Nc1ncccn1)N1CCc2[nH]nc(C(F)(F)F)c2C1 (centres unmarked)	-8.452%
O=S(=O)(Nc1cn[nH]c1)c1ccc(F)c(Br)c1	-23.69%
CC(C)c1cc(NC(=O)CN2CCc3ccccc3C2)on1	2.453%
CCn1cc(NC(=O)C2CCN(Cc3ccccc3C#N)CC2)cn1	-15.75%
CN(CCNC(=O)c1scnc1Cl)c1ccccc1	0.7353%
Cc1ccc(N2CCCC(NCCCS(C)(=O)=O)C2)nn1 (centres unmarked)	-8.653%
COCCn1ccc(=O)c(OCC(=O)Nc2cccc(C(C)=O)c2)c1C	-4.386%
CCN(CC)C(=O)CCNc1cncc(-n2nc(C)cc2C)n1	-12%
O=C(O)C(F)(F)F.O=C(O)c1cc(NS(=O)(=O)c2ccc(Cl)s2)ccc1N1CCOCC1	-5.103%
CCOc1ccc(N(C)Cc2nnc(C3CC3)o2)cc1	-23.42%
Cc1nc(C)n(CC2CCCN(CC(=O)Nc3nncs3)C2)n1 (centres unmarked)	4.287%
Cc1ncsc1C(=O)N(C)Cc1ccncc1	10.88%
Cc1nn(C)c(Cl)c1C1CCCN1Cc1ccccn1 (centres unmarked)	-1.588%
Cc1cc(Nc2ncccn2)nc(C2CCCN(CCO)C2)n1 (centres unmarked)	11.55%
CC[C@H](C)[C@H](N)C(=O)Nc1nc(-c2cnc(N3CCOCC3)nc2)cs1	2.456%
CC(NCCCC#N)c1ccc(S(C)(=O)=O)c(F)c1 (centres unmarked)	8.214%
CN(C)CCNC(=O)c1cc2n(n1)CCN(C(=O)c1ccco1)C2	-1.79% & 5.403%
Cc1ccc(C(=O)N2CCN(Cc3cccs3)CC2)n1C	10.06%
CC(=O)c1cc(CC(=O)N2CCN(CCOc3ccccc3)CC2)cs1	6.964%
[H][C@@]12C[C@H](C)O[C@@]1([H])CCN(S(=O)(=O)c1ccc(F)cc1)C2	4.641%
Cc1cc(C)n(CC2CCCN2CCc2ccccn2)n1 (centres unmarked)	8.945%
O=c1[nH]c(NCCO)nc2c1C1(CCCC1)Cc1ccccc1-2	9.537%
O=C(Cc1ccsc1)N1CCC(c2n[nH]c3nccnc23)CC1	-2.421%
Cc1cc(C(=O)N2CCC(Nc3cccnn3)CC2)no1	-2.875%
CC(C)NC(=O)N1CCC2(CCC(=O)N2CCN(C)C)CC1.O=C(O)C(F)(F)F	7.618%
Cc1nccn1C1CCCN(C(=O)c2ccc(-n3cccn3)nc2)C1 (centres unmarked)	-4.8%
O=C1NC(C(=O)NCc2cccnc2Oc2ccc(F)c(F)c2)CO1 (centres unmarked)	4.118%
Cc1cc(CC(=O)N2CCc3cc(Br)sc3C2)n[nH]1	-2.456%
CCOC(=O)N1CCN(Cc2ccc(OCc3nccn3C)cc2)CC1	5.56%
CCc1c(C(=O)O)nnn1-c1ccc(C)cc1C	-2.106%

Some entries from above, unchanged:

{"compound": "Cc1cc(CC(=O)N2CCc3cc(Br)sc3C2)n[nH]1", "Percent Effect": -2.456}
{"compound": "CC(C(=O)Nc1ncccn1)N1CCc2[nH]nc(C(F)(F)F)c2C1", "stereo": "centres unmarked", "Percent Effect": -8.452}
{"compound": "Cc1cc(Nc2ncccn2)nc(C2CCCN(CCO)C2)n1", "stereo": "centres unmarked", "Percent Effect": 11.55}